# Measured values: the supplement of paper PMC12823440, “Inhibitors supercharge kinase turnover through native proteolytic circuits” (Nature, 2025)
# Chains of the proteins cited; added tags and fusions are not shown. Lines headed by an entry give the natural chain unless they say otherwise; changes in a name come on top.
# UniProt Q9Y616: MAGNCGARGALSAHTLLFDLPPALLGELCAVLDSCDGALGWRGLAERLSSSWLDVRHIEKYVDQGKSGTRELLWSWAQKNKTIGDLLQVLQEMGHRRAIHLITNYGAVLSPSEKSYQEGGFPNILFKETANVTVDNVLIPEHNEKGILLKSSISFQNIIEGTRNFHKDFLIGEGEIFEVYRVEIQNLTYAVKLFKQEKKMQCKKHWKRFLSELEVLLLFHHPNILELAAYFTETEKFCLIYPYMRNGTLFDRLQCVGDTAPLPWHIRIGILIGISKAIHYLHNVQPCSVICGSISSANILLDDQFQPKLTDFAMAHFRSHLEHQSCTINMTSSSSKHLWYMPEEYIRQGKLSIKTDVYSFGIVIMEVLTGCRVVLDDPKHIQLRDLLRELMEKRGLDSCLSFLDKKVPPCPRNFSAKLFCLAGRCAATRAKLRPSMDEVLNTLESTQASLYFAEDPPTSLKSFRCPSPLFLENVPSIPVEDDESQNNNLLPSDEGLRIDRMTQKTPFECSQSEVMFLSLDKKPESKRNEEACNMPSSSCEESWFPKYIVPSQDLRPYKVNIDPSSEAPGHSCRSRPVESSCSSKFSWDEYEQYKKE
# UniProt P23458: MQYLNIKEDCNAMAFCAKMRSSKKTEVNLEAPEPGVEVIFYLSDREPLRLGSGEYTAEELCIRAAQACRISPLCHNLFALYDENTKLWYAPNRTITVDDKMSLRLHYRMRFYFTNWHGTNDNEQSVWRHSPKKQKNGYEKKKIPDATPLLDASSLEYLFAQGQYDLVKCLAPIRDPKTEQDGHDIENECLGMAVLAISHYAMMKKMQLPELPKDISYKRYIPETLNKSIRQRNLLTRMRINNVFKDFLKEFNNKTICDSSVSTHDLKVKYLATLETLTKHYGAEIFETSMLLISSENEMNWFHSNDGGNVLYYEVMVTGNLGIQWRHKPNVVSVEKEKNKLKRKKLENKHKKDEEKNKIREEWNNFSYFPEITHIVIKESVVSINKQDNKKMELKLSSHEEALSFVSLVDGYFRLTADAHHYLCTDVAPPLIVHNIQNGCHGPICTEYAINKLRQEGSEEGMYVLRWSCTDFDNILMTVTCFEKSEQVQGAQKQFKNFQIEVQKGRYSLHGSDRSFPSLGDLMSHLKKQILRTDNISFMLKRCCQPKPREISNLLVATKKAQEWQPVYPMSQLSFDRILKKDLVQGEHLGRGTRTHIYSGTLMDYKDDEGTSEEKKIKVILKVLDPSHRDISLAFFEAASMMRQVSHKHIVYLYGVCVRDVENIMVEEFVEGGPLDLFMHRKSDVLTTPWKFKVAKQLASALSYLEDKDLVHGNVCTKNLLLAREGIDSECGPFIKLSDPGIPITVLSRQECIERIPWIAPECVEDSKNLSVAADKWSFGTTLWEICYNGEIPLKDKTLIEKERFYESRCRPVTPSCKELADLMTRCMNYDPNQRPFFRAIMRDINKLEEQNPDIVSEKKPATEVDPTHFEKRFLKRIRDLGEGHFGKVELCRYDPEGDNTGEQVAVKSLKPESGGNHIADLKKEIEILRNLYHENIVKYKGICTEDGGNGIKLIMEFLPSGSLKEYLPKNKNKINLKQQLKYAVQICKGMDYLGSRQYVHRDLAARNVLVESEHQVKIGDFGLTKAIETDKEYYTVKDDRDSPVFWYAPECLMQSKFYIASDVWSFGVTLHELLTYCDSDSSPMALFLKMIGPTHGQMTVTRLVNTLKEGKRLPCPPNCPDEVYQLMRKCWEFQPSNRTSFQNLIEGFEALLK
# UniProt P06239: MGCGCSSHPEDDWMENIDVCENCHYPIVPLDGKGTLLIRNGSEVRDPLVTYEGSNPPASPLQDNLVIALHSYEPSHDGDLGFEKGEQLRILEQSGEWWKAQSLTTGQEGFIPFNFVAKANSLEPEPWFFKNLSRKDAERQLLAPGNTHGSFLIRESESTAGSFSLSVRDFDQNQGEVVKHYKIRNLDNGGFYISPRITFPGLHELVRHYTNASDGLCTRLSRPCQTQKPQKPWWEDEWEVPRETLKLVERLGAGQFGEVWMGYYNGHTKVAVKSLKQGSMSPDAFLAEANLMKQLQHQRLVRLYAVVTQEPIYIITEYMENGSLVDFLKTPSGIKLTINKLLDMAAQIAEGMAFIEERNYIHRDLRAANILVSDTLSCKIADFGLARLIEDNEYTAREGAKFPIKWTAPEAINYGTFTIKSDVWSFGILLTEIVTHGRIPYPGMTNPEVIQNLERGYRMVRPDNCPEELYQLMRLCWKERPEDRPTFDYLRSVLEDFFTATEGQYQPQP
# UniProt P53667: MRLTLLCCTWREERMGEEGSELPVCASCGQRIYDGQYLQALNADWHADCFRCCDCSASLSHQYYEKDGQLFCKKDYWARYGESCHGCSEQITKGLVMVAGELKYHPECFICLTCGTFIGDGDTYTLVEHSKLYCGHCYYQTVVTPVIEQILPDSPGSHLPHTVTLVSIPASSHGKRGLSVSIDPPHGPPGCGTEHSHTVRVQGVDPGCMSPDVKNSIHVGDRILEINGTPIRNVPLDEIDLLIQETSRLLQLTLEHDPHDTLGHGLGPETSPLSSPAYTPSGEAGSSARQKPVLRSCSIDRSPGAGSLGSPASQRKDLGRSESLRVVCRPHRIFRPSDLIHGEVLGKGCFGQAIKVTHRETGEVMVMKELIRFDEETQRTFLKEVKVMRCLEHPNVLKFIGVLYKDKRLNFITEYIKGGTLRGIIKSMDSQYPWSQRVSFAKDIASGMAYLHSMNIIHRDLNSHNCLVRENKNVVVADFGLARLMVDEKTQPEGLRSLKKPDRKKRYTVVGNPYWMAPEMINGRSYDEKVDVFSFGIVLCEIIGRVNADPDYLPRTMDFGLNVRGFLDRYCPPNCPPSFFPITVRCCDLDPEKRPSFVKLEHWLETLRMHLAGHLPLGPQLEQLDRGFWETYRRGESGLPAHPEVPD
# UniProt P53671: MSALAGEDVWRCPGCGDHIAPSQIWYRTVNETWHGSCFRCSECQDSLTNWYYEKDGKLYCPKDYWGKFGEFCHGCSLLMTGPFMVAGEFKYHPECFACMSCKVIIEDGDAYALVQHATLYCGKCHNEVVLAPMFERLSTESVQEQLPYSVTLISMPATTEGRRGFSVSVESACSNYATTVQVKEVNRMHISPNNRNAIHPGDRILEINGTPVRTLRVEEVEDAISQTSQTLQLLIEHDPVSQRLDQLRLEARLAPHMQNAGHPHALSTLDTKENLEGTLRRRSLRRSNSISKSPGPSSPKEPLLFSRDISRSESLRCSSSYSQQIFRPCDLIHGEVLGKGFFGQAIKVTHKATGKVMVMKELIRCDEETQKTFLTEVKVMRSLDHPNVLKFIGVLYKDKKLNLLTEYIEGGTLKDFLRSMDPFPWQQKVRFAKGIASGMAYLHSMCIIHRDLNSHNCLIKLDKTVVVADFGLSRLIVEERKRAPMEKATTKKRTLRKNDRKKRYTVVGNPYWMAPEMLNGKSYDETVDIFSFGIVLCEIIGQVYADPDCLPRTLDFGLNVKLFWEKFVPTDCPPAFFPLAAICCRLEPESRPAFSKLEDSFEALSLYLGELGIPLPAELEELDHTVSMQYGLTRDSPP
# UniProt Q8IWU2: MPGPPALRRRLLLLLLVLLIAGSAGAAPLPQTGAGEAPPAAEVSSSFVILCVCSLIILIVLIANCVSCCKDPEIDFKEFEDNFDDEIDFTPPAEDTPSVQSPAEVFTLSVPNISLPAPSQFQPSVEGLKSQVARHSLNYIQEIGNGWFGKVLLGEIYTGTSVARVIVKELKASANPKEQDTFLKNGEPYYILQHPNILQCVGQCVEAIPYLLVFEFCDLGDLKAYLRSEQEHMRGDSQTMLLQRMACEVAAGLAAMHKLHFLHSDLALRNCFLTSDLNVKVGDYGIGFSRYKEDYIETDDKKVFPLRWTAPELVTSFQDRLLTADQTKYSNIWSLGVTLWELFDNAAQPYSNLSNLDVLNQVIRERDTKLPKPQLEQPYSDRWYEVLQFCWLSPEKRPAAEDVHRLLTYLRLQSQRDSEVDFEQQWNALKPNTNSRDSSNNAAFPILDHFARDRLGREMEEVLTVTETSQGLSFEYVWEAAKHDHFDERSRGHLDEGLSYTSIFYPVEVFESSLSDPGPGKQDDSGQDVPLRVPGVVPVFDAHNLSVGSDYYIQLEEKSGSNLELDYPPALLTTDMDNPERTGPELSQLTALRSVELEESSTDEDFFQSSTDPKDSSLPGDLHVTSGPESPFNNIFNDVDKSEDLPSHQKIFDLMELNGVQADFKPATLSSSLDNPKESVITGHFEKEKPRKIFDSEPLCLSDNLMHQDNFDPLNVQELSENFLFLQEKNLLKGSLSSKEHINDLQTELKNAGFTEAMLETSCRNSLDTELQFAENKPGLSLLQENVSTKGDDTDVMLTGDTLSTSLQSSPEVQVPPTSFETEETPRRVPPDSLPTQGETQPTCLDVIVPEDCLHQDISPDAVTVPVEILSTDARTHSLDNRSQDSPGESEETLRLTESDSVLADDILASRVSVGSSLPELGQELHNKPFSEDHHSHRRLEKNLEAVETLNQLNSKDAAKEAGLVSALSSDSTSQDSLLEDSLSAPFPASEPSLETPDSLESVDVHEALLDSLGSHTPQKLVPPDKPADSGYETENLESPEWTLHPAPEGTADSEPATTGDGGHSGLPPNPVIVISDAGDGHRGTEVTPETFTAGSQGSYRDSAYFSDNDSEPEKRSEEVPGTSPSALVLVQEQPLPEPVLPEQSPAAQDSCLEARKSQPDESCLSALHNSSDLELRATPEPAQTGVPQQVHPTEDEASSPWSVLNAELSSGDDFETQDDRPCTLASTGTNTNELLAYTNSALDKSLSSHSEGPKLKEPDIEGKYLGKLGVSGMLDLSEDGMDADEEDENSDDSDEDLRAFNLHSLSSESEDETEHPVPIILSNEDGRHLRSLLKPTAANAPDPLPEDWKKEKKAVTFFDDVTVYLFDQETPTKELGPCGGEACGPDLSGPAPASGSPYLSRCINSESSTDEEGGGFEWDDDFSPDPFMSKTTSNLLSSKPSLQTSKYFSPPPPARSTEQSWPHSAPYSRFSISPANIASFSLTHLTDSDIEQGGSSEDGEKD
# UniProt P07948: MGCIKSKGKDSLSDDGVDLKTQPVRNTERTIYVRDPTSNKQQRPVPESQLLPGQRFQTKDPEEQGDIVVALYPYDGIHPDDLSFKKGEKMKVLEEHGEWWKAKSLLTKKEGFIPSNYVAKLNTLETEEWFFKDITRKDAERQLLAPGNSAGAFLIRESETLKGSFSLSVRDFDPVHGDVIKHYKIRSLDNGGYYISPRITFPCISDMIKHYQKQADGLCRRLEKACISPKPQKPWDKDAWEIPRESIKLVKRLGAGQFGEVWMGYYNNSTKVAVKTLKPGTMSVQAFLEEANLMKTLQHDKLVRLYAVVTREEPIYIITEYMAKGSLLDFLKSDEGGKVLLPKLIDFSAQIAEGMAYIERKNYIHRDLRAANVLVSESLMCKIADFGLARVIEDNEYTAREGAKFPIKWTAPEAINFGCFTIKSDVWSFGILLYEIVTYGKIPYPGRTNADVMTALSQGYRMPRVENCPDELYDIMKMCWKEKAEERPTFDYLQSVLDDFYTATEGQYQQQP
# UniProt Q12851: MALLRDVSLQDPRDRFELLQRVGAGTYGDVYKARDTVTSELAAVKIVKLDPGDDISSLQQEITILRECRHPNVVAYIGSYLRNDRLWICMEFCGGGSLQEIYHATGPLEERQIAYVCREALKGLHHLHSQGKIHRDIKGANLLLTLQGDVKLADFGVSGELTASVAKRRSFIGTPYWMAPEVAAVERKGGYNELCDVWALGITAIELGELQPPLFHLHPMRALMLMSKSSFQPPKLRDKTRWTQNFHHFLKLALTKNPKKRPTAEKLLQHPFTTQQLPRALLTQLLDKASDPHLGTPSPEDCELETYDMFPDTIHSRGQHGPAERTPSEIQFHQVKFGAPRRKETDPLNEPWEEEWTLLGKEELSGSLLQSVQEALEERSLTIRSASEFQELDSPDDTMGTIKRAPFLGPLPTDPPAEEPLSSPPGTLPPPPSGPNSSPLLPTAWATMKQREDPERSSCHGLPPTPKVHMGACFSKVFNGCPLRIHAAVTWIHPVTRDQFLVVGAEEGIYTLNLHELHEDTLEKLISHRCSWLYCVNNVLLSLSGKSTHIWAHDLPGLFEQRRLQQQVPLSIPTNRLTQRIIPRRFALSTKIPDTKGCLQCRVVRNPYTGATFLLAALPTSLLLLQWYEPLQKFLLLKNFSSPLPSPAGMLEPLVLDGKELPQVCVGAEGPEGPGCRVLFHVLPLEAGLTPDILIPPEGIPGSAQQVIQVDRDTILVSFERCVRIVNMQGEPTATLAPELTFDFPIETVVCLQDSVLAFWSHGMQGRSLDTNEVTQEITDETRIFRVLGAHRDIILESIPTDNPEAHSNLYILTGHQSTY
# Structures can show the parent of a compound that is named as a salt. The list shows a part of the results. The calls rarely recur for the same compound in another form.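 Kinases, fused to nanoluciferase, were expressed in K562 cells; luminescence was measured every 4 h from 2 to 18 h as percent of control (DMSO = 100%, positive control = 0%). A time point is decreased if signal falls significantly (2 sigma). Hits were called by the authors by a rule that is not shown; the count of time points alone does not decide it.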
# Assays:
# Assay in all cases: kinase-Nluc reporter destabilization hit call (1 = scored as downregulated) (binary); higher = compound decreases kinase abundance
# Conditions in all cases: K562; 2-18 h
# IRAK3 = IRAK3 (UniProt Q9Y616)
# JAK1 = JAK1 (UniProt P23458)
# LCK = LCK (UniProt P06239)
# LIMK1 = LIMK1 (UniProt P53667)
# LIMK2 = LIMK2 (UniProt P53671)
# LMTK2 = LMTK2 (UniProt Q8IWU2)
# LYN = LYN (UniProt P07948)
# MAP2K1 = MAP2K1 (UniProt Q02750)
# MAP2K2 = MAP2K2 (UniProt P36507)
# MAP4K2 = MAP4K2 (UniProt Q12851)
Compound,kinase-Nluc reporter destabilization hit call (IRAK3),kinase-Nluc reporter destabilization hit call (JAK1),kinase-Nluc reporter destabilization hit call (LCK),kinase-Nluc reporter destabilization hit call (LIMK1),kinase-Nluc reporter destabilization hit call (LIMK2),kinase-Nluc reporter destabilization hit call (LMTK2),kinase-Nluc reporter destabilization hit call (LYN),kinase-Nluc reporter destabilization hit call (MAP2K1),kinase-Nluc reporter destabilization hit call (MAP2K2),kinase-Nluc reporter destabilization hit call (MAP4K2)
Cc1nc(NC(=O)NCCc2nnn(CCF)n2)sc1-c1ccc(S(C)(=O)=O)c(F)c1 (10 µM),inactive: 0,inactive: 0,inactive: 0,inactive: 0,inactive: 0,inactive: 0,inactive: 0,inactive: 0,inactive: 0,inactive: 0
O=[N+]([O-])c1ccc(Sc2cccc[n+]2[O-])c2nonc12 (2.5 µM),inactive: 0,inactive: 0,inactive: 0,inactive: 0,inactive: 0,inactive: 0,inactive: 0,inactive: 0,inactive: 0,inactive: 0
Cn1ncc(Cl)c1-c1cc(C(=O)N[C@H](CN)Cc2ccc(F)c(F)c2)sc1Cl (10 µM),inactive: 0,inactive: 0,inactive: 0,inactive: 0,inactive: 0,inactive: 0,inactive: 0,inactive: 0,inactive: 0,inactive: 0
CN(C)c1ncnc2nc[nH]c12 [6-(Dimethylamino)purine] (10 µM),inactive: 0,inactive: 0,inactive: 0,inactive: 0,inactive: 0,inactive: 0,inactive: 0,inactive: 0,inactive: 0,inactive: 0
COc1cc2ncnc(Nc3ccc(NC(=O)c4ccccc4)cc3)c2cc1OC [Aurora kinase inhibitor-2] (2.5 µM),inactive: 0,inactive: 0,inactive: 0,inactive: 0,inactive: 0,inactive: 0,inactive: 0,inactive: 0,inactive: 0,inactive: 0
C[C@@H]1CCc2ncc(F)cc2[C@H]2CCCN2c2ccn3ncc(c3n2)C(=O)N1 [Selitrectinib] (10 µM),inactive: 0,inactive: 0,inactive: 0,inactive: 0,inactive: 0,inactive: 0,inactive: 0,inactive: 0,inactive: 0,inactive: 0
C=CC(=O)Nc1cccc(-n2c(=O)cc(C)c3cnc(Nc4ccc(OCCN(C)C)cc4OC)nc32)c1 (10 µM),inactive: 0,inactive: 0,inactive: 0,inactive: 0,inactive: 0,inactive: 0,inactive: 0,inactive: 0,inactive: 0,inactive: 0
Nc1n[nH]c2cc(-c3ccc(=O)n(Cc4cccc(Cl)c4)c3)ccc12 (10 µM),inactive: 0,inactive: 0,inactive: 0,inactive: 0,inactive: 0,inactive: 0,inactive: 0,inactive: 0,inactive: 0,inactive: 0
O=C(CO)N1CCC(c2n[nH]c(-c3ccc(Cl)cc3)c2-c2ccncn2)CC1 (10 µM),inactive: 0,inactive: 0,inactive: 0,inactive: 0,inactive: 0,inactive: 0,inactive: 0,inactive: 0,inactive: 0,inactive: 0
Cn1cc(-c2cc3c(N4CCN(c5ncc([C@@](C)(N)c6ccc(F)cc6)cn5)CC4)ncnn3c2)cn1 [Avapritinib] (2.5 µM),inactive: 0,inactive: 0,inactive: 0,active: 1,inactive: 0,inactive: 0,inactive: 0,inactive: 0,inactive: 0,inactive: 0
CCCCNC(=N)NC(=N)N [Buformin (hydrochloride)] (2.5 µM),inactive: 0,inactive: 0,inactive: 0,inactive: 0,inactive: 0,inactive: 0,inactive: 0,inactive: 0,inactive: 0,inactive: 0
CCN1C(=O)CNc2ncc(-c3ccc(-c4nc[nH]n4)nc3C)nc21 [CC-115 (hydrochloride)] (2.5 µM),inactive: 0,inactive: 0,inactive: 0,inactive: 0,inactive: 0,inactive: 0,inactive: 0,inactive: 0,inactive: 0,inactive: 0
CC1=C(CC(=O)O)c2cc(F)ccc2/C1=C\c1ccc(C(C)C)cc1 (10 µM),inactive: 0,inactive: 0,inactive: 0,inactive: 0,inactive: 0,inactive: 0,inactive: 0,inactive: 0,inactive: 0,inactive: 0
COc1cc(C(=O)N2CCC(N3CCN(C)CC3)CC2)ccc1Nc1ncc2c(n1)N(C)c1ccccc1C(=O)N2C (10 µM),inactive: 0,inactive: 0,inactive: 0,inactive: 0,inactive: 0,inactive: 0,inactive: 0,inactive: 0,inactive: 0,inactive: 0
Nc1ncc(-c2ccc(C(=O)N3CCNCC3)cc2)nc1-c1ccc(C(F)(F)F)cc1 (10 µM),inactive: 0,inactive: 0,inactive: 0,inactive: 0,inactive: 0,inactive: 0,inactive: 0,inactive: 0,inactive: 0,inactive: 0
CC[C@@H](N)CNc1ccnc(-c2cc(-c3cnn(C)c3)ccc2O)n1 (2.5 µM),inactive: 0,inactive: 0,inactive: 0,inactive: 0,inactive: 0,inactive: 0,inactive: 0,inactive: 0,inactive: 0,inactive: 0
O=c1cc(-c2ccc(O)c(O)c2O)oc2ccccc12 (10 µM),inactive: 0,inactive: 0,inactive: 0,inactive: 0,inactive: 0,inactive: 0,inactive: 0,inactive: 0,inactive: 0,inactive: 0
CC(C)c1cc(/C=C(\C#N)C(N)=O)cc(C(C)C)c1O (10 µM),inactive: 0,inactive: 0,inactive: 0,inactive: 0,inactive: 0,inactive: 0,inactive: 0,inactive: 0,inactive: 0,inactive: 0
CCn1nc(C2CCN(C(=O)CCO)CC2)nc1-c1cnc(N)c(-c2nnc(C(C)(C)C)o2)n1 (10 µM),inactive: 0,inactive: 0,inactive: 0,inactive: 0,inactive: 0,inactive: 0,inactive: 0,inactive: 0,inactive: 0,inactive: 0
COC(=O)[C@@]1(C)CC[C@]2(C(=O)O)CC[C@]3(C)C(=CC[C@@H]4[C@@]5(C)C[C@H](O)[C@H](O[C@@H]6OC[C@@H](O[C@@H]7O[C@H](CO)[C@@H](O)[C@H](O)[C@H]7O)[C@H](O)[C@H]6O)[C@@](C)(CO)[C@@H]5CC[C@]43C)[C@@H]2C1 [Esculentoside A] (10 µM),inactive: 0,inactive: 0,inactive: 0,inactive: 0,inactive: 0,inactive: 0,inactive: 0,inactive: 0,inactive: 0,inactive: 0
CC(C)(C)Cn1c(N)nc2ccc(-c3[nH]c(C(C)(C)C)nc3-c3ccc(F)cc3)nc21 [Ralimetinib dimesylate] (2.5 µM),inactive: 0,inactive: 0,inactive: 0,inactive: 0,inactive: 0,inactive: 0,inactive: 0,inactive: 0,inactive: 0,inactive: 0
CC[C@H](C)[C@H](NC(=O)[C@H](CCC(=O)O)NC(=O)[C@H](CCCN=C(N)N)NC(=O)[C@H](CCCN=C(N)N)NC(=O)[C@@H](N)CCCCN)C(=O)N[C@@H](CC(C)C)C(=O)N[C@@H](CO)C(=O)N[C@@H](CCCN=C(N)N)C(=O)N[C@@H](CCCN=C(N)N)C(=O)N1CCC[C@H]1C(=O)N[C@@H](CO)C(=O)N[C@@H](Cc1ccc(O)cc1)C(=O)N[C@@H](CCCN=C(N)N)C(=O)O [CREBtide] (10 µM),inactive: 0,inactive: 0,inactive: 0,inactive: 0,inactive: 0,inactive: 0,inactive: 0,inactive: 0,inactive: 0,inactive: 0
C=C[C@H]1[C@H](O[C@@H]2O[C@H](CO)[C@@H](O)[C@H](O)[C@H]2OC(=O)c2c(O)cc(O)cc2-c2cccc(O)c2)OC=C2C(=O)OCC[C@H]21 [Amarogentin] (10 µM),inactive: 0,inactive: 0,inactive: 0,inactive: 0,inactive: 0,inactive: 0,inactive: 0,inactive: 0,inactive: 0,inactive: 0
CCCCOc1ccc(CC/C=C2\SC(=O)N(CCN)C2=O)cc1 [K145 (hydrochloride)] (2.5 µM),inactive: 0,inactive: 0,inactive: 0,inactive: 0,inactive: 0,inactive: 0,inactive: 0,inactive: 0,inactive: 0,inactive: 0
[O-][n+]1cccc(-c2nc3c(Cl)cccc3cc2[C@@H](Nc2ncnc3cccnc23)C(F)(F)F)c1 [Seletalisib] (10 µM),inactive: 0,inactive: 0,inactive: 0,inactive: 0,inactive: 0,inactive: 0,inactive: 0,inactive: 0,inactive: 0,inactive: 0
Oc1ccccc1C(=S)N1CCCC1 (10 µM),inactive: 0,inactive: 0,inactive: 0,inactive: 0,inactive: 0,inactive: 0,inactive: 0,inactive: 0,inactive: 0,inactive: 0
C=CC(=O)N1CCC(Oc2cc3c(Nc4ccc(Cl)c(Cl)c4F)ncnc3cc2OC)CC1 [Poziotinib] (2.5 µM),inactive: 0,inactive: 0,inactive: 0,inactive: 0,inactive: 0,inactive: 0,inactive: 0,inactive: 0,inactive: 0,inactive: 0
O=c1[nH]ccc2cc(OC3CCNCC3)ccc12 (10 µM),inactive: 0,inactive: 0,inactive: 0,inactive: 0,inactive: 0,inactive: 0,inactive: 0,inactive: 0,inactive: 0,inactive: 0
CC(C)(O)[C@@H]1CC[C@](C)([C@H]2[C@@H](O)C[C@@]3(C)[C@@H]4C[C@H](O[C@@H]5O[C@H](CO)[C@@H](O)[C@H](O)[C@H]5O)[C@H]5C(C)(C)[C@@H](O[C@@H]6OC[C@@H](O)[C@H](O)[C@H]6O[C@@H]6O[C@H](CO)[C@@H](O)[C@H](O)[C@H]6O)CC[C@@]56C[C@@]46CC[C@]23C)O1 [Astragaloside VI] (10 µM),inactive: 0,inactive: 0,inactive: 0,inactive: 0,inactive: 0,inactive: 0,inactive: 0,inactive: 0,inactive: 0,inactive: 0

# Ordered by count of non-hydrogen atoms (falling): some entries from above
Compound,kinase-Nluc reporter destabilization hit call (IRAK3),kinase-Nluc reporter destabilization hit call (JAK1),kinase-Nluc reporter destabilization hit call (LCK),kinase-Nluc reporter destabilization hit call (LIMK1),kinase-Nluc reporter destabilization hit call (LIMK2),kinase-Nluc reporter destabilization hit call (LMTK2),kinase-Nluc reporter destabilization hit call (LYN),kinase-Nluc reporter destabilization hit call (MAP2K1),kinase-Nluc reporter destabilization hit call (MAP2K2),kinase-Nluc reporter destabilization hit call (MAP4K2)
CC[C@H](C)[C@H](NC(=O)[C@H](CCC(=O)O)NC(=O)[C@H](CCCN=C(N)N)NC(=O)[C@H](CCCN=C(N)N)NC(=O)[C@@H](N)CCCCN)C(=O)N[C@@H](CC(C)C)C(=O)N[C@@H](CO)C(=O)N[C@@H](CCCN=C(N)N)C(=O)N[C@@H](CCCN=C(N)N)C(=O)N1CCC[C@H]1C(=O)N[C@@H](CO)C(=O)N[C@@H](Cc1ccc(O)cc1)C(=O)N[C@@H](CCCN=C(N)N)C(=O)O [CREBtide] (10 µM),inactive: 0,inactive: 0,inactive: 0,inactive: 0,inactive: 0,inactive: 0,inactive: 0,inactive: 0,inactive: 0,inactive: 0
COc1cc2ncnc(Nc3ccc(NC(=O)c4ccccc4)cc3)c2cc1OC [Aurora kinase inhibitor-2] (2.5 µM),inactive: 0,inactive: 0,inactive: 0,inactive: 0,inactive: 0,inactive: 0,inactive: 0,inactive: 0,inactive: 0,inactive: 0
CN(C)c1ncnc2nc[nH]c12 [6-(Dimethylamino)purine] (10 µM),inactive: 0,inactive: 0,inactive: 0,inactive: 0,inactive: 0,inactive: 0,inactive: 0,inactive: 0,inactive: 0,inactive: 0
